Some of the results follow. Residues, ends and D or L forms follow the SMILES beside them. *: point of attachment. Cbz = O=C(OCc1ccccc1)*
What was measured:
Assay in all cases: log2 fold change, soluble protein after heating vs DMSO (PISA); higher = thermal stabilisation; K562 cells, 10 uM, 30 min; active = over 0.2 and 3.5 SD of the protein, either way, in both replicates (recomputed)
IRAK-1-4 Inhibitor I = compound: C1COCCN1CCN2C3=CC=CC=C3N=C2NC(=O)C4=CC(=CC=C4)[N+](=O)[O-] [IRAK-1-4 Inhibitor I]
Outline: (§1)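 K562 cells at 2×10^6 cells/mL were treated for 30 min with 10 μM compound, and aliquots were heated for 3 min over 48°C-58°C before pooling. Extraction used PBS with 0.5% NP-40 at 4°C, and soluble protein was the supernatant after 21,000xg for 90 min, measured by TMTpro 16plex LC-MS/MS with channel sums equalised. Thermal stability values, relative to control samples and from duplicates, are log2 fold changes.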

By UniProt entry, the sequences of proteins in these tests, tags left out. Where a name states a change or a piece, a line headed by the entry shows the natural chain unless it says otherwise.
UniProt Q8WXG6, whole entry, looked up: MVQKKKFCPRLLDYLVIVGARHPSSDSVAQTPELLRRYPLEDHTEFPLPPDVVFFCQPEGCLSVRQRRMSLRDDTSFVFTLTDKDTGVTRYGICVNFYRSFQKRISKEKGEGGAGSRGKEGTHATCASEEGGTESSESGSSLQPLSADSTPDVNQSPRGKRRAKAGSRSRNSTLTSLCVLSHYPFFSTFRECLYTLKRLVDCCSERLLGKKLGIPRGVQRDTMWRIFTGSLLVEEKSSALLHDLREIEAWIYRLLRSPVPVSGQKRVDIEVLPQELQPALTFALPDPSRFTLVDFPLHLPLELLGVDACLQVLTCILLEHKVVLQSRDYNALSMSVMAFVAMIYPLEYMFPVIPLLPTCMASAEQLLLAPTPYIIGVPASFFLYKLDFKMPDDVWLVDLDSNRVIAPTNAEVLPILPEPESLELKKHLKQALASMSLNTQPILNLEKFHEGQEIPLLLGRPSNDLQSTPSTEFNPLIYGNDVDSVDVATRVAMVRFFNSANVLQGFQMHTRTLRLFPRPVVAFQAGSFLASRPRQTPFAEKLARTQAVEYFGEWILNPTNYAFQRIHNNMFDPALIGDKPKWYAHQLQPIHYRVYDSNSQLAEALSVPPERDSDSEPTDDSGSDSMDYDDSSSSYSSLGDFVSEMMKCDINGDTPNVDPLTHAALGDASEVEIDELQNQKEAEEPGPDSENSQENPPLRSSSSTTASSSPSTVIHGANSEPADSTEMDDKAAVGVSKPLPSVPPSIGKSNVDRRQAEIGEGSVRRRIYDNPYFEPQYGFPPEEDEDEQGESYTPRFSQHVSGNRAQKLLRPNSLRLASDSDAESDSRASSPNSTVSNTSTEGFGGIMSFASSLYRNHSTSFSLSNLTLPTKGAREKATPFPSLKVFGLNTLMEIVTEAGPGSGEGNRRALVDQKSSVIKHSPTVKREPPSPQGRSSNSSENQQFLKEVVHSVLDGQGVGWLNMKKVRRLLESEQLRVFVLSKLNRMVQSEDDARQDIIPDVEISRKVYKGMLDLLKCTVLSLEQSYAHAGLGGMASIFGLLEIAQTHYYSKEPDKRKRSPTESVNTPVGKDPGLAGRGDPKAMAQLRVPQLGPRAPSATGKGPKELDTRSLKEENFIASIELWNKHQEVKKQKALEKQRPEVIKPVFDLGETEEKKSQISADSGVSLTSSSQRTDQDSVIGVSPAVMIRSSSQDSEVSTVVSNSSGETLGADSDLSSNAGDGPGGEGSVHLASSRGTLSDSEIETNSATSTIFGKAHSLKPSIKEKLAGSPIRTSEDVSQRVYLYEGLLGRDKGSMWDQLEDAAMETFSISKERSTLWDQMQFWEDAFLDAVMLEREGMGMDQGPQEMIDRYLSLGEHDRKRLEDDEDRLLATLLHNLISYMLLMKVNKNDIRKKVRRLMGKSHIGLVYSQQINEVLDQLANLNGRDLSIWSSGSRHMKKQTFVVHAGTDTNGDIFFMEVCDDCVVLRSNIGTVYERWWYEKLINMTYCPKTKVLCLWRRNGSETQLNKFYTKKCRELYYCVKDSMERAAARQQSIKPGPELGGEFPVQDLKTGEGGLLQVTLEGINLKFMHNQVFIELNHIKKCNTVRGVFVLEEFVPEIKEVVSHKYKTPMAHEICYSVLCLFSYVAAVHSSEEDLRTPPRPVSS
UniProt P45983: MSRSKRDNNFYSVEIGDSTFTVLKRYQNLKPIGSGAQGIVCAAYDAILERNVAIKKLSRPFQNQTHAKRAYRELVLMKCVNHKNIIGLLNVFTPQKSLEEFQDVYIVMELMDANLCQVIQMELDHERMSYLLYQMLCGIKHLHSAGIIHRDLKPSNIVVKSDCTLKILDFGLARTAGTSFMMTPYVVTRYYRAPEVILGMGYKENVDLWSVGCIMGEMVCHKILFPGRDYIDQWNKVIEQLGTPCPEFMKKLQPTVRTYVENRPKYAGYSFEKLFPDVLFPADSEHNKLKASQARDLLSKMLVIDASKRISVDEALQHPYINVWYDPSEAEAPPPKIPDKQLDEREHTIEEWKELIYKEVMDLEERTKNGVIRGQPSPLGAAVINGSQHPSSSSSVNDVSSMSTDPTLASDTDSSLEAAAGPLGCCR
UniProt P49137, whole entry, looked up: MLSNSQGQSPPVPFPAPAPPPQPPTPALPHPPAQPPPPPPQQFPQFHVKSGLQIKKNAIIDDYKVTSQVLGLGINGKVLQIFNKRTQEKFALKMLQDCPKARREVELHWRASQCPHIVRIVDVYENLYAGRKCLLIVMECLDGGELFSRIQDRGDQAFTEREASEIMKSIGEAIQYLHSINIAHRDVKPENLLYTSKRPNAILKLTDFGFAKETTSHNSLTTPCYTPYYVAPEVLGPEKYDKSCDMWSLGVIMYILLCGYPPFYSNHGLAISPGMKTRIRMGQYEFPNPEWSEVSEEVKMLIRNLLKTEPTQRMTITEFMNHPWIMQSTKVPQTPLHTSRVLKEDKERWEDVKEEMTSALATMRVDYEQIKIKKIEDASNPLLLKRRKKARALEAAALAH
UniProt Q13257, whole entry, looked up: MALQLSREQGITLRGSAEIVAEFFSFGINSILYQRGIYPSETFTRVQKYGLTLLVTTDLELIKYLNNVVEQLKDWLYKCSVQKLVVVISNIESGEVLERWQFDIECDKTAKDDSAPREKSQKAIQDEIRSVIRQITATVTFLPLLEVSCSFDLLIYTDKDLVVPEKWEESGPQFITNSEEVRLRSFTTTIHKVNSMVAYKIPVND
UniProt Q9UPY8, whole entry, looked up: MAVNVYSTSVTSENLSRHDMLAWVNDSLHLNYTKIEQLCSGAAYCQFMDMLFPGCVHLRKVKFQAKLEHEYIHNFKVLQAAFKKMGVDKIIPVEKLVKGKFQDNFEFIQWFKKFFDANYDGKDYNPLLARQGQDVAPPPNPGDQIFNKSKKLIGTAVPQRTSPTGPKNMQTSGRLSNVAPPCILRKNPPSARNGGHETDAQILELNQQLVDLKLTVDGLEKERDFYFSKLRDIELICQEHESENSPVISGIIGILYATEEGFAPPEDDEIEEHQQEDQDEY
UniProt Q9Y4K4: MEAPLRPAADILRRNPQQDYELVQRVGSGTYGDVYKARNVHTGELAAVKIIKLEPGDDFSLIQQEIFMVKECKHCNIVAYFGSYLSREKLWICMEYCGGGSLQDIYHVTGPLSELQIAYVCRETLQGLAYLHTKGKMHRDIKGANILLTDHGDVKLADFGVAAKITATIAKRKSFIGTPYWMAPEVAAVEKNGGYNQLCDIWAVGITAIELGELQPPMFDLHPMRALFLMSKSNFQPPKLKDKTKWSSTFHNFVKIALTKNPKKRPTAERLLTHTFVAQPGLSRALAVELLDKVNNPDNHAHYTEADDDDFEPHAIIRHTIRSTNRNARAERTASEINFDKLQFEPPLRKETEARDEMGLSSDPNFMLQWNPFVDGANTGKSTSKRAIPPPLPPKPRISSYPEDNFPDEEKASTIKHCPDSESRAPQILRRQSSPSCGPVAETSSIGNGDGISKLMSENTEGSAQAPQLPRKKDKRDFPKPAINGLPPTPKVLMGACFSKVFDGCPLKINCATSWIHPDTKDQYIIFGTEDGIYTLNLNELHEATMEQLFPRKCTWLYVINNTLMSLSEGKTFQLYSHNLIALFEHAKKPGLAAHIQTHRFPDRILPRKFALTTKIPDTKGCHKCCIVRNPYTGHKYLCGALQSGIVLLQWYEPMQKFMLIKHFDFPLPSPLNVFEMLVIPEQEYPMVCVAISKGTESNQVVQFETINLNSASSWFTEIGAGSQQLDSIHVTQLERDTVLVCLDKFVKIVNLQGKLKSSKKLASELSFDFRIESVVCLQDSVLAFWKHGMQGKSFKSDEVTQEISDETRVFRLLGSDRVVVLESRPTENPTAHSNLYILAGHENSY
UniProt Q9Y6R4: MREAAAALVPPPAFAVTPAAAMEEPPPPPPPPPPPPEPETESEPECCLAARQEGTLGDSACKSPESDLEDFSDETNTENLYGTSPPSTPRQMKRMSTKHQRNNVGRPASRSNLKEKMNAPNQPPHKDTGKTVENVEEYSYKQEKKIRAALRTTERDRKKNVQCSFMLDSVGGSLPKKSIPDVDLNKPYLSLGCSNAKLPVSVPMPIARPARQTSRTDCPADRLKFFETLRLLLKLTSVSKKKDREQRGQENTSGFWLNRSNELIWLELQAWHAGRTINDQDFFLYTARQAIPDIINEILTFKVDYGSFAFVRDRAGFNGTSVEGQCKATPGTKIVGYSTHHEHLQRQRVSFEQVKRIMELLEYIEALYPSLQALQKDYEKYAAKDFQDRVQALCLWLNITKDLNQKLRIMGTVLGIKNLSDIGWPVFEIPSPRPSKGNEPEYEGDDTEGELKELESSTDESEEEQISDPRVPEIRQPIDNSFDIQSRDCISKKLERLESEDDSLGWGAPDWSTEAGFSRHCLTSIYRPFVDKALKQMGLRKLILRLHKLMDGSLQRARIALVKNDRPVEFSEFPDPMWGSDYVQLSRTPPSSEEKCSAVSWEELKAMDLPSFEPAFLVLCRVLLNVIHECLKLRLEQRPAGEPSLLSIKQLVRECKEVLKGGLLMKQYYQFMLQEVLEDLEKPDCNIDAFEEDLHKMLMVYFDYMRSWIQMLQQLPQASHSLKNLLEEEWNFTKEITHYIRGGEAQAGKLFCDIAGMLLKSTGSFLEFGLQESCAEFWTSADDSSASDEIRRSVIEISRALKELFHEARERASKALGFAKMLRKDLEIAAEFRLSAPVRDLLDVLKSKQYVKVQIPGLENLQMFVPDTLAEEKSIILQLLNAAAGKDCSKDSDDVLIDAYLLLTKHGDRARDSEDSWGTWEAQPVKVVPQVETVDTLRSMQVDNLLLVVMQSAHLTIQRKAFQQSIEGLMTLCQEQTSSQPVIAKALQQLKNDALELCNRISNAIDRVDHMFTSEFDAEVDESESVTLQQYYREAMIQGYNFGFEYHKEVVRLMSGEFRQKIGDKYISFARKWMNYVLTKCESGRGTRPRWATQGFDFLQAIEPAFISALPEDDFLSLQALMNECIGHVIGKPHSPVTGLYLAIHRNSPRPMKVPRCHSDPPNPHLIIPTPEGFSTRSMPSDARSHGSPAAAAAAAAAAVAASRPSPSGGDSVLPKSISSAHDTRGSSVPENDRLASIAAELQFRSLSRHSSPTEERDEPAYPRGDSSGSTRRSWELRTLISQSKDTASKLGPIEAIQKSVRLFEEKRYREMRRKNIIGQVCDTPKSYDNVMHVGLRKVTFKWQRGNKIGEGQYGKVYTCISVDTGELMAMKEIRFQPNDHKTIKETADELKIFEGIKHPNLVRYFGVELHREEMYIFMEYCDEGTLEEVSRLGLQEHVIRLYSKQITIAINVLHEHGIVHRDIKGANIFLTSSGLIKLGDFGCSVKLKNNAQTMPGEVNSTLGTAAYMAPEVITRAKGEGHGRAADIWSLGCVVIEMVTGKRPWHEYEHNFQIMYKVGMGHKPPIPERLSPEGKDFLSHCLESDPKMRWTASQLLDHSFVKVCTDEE
UniProt P45985: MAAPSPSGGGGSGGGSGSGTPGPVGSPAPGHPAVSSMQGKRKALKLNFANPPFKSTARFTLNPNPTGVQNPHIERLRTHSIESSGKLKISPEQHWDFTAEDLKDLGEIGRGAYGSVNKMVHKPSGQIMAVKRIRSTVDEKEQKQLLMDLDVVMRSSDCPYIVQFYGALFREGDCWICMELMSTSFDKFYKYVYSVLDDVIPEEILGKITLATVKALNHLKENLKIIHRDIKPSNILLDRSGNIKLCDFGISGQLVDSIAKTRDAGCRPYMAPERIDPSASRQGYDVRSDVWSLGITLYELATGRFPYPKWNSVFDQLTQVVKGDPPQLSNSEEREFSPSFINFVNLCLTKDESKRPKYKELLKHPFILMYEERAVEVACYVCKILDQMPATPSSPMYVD
UniProt P48449: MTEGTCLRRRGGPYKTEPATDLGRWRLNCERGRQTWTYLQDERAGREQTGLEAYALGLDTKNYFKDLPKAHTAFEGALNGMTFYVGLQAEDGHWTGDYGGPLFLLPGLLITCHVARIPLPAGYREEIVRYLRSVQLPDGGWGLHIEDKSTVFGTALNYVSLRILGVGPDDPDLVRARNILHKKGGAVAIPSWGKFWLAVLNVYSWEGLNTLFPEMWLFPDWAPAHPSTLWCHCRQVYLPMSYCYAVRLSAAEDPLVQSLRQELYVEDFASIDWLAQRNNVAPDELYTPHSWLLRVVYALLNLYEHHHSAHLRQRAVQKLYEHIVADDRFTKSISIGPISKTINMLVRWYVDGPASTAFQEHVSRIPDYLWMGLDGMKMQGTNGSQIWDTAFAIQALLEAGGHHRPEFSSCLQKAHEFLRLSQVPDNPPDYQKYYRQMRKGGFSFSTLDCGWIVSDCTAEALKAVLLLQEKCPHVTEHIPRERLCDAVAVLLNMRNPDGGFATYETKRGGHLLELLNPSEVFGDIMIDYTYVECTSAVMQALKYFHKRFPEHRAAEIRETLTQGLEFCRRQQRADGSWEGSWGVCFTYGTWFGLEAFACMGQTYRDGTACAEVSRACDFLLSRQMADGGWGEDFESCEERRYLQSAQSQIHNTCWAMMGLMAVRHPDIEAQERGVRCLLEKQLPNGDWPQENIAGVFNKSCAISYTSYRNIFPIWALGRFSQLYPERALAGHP

ibrutinib = compound: C=CC(=O)N1CCC[C@@H](n2nc(-c3ccc(Oc4ccccc4)cc3)c3c(N)ncnc32)C1 [ibrutinib]
Outline: as §1

[1] = compound: CC(=O)c1cnc2ccc(-c3cc(Cl)c(O)c(Cl)c3)nc2c1N[C@H]1CC[C@H](CN(C)C)CC1
Outline: as §1

ralimetinib = compound: CC(C)(C)Cn1c(N)nc2ccc(-c3[nH]c(C(C)(C)C)nc3-c3ccc(F)cc3)nc21 [ralimetinib]
Outline: as §1

[2] = compound: CC(C)(O)CC(=O)NCCn1ccc2ncnc(Nc3ccc(Oc4cccc(C(F)(F)F)c4)c(Cl)c3)c21
Outline: as §1

[3] = compound: CC(C)C1=C2N=C(C=C(N2N=C1)NCC3=CC=CC=C3)NCCCCCCN
Outline: as §1

[4] = compound: CC(C)C[C@@H](C=O)NC(=O)[C@H](CC(C)C)NC(=O)[C@H](CC(C)C)NC(=O)OCc1ccccc1
Outline: as §1

pinometostat = compound: CC(C)N(C[C@H]1O[C@@H](n2cnc3c(N)ncnc32)[C@H](O)[C@@H]1O)[C@H]1C[C@@H](CCc2nc3cc(C(C)(C)C)ccc3[nH]2)C1 [pinometostat]
Outline: as §1

[5] = compound: CC1=C(C(CC(=O)N1)C2=CC=C(C=C2)C(F)(F)F)C(=O)NC3=C(C=C4C(=C3)C=NN4)F
Outline: as §1

[6] = compound: CC1=C(C2=C(C=C1)C(=O)C3=CC=CC=C3N2CCCN)C
Outline: as §1

[7] = compound: CC1=C(C=C(C=C1)NC(=O)C2=CC(=CC=C2)C(C)(C)C#N)NC3=CC4=C(C=C3)N=CN(C4=O)C
Outline: as §1

[8] = compound: CC1=C(C=C(C=C1)NC(=O)C2=CC(=CC=C2)N(C)C)NC(=O)C3=CC=C(C=C3)O
Outline: as §1

[9] = compound: CC1=CC=C(C=C1)SC2=C3C=C(SC3=CN=C2)C(=O)N
Outline: as §1

[10] = compound: CC1=NC(=CC=C1)C2=C(N=C(N2)C(C)(C)C)C3=CC4=NC=CN=C4C=C3
Outline: as §1

Nexturastat A = compound: CCCCN(Cc1ccc(C(=O)NO)cc1)C(=O)Nc1ccccc1 [Nexturastat A]
Outline: as §1

[11] = compound: CCCS(=O)(=O)Nc1ccc(F)c(C(=O)c2c[nH]c3ncc(Cl)cc23)c1F
Outline: as §1

[12] = compound: CCCc1cc(C)[nH]c(=O)c1CNC(=O)c1cc(-c2ccnc(N3CCN(C)CC3)c2)cc2c1cnn2C(C)C
Outline: as §1

givinostat = compound: CCN(CC)Cc1ccc2cc(COC(=O)Nc3ccc(C(=O)NO)cc3)ccc2c1 [givinostat]
Outline: as §1

barasertib = compound: CCN(CCCOc1ccc2c(Nc3cc(CC(=O)Nc4cccc(F)c4)[nH]n3)ncnc2c1)CCOP(=O)(O)O [barasertib]
Outline: as §1

vemurafenib = compound: CCCS(=O)(=O)Nc1ccc(F)c(C(=O)c2c[nH]c3ncc(-c4ccc(Cl)cc4)cc23)c1F [vemurafenib]
Outline: as §1

Target	log2 fold change (IRAK-1-4 Inhibitor I)	log2 fold change (ibrutinib)	log2 fold change [1]	log2 fold change (ralimetinib)	log2 fold change [2]	log2 fold change [3]	log2 fold change [4]	log2 fold change (pinometostat)	log2 fold change [5]	log2 fold change [6]	log2 fold change [7]	log2 fold change [8]	log2 fold change [9]	log2 fold change [10]	log2 fold change (Nexturastat A)	log2 fold change [11]	log2 fold change [12]	log2 fold change (givinostat)	log2 fold change (barasertib)	log2 fold change (vemurafenib)
MADD isoform 2 (UniProt Q8WXG6)	inactive: -0.092	inactive: -0.098	inactive: 0.01	inactive: 0.105	inactive: -0.019	inactive: -0.147	inactive: 0.131	inactive: 0.089	inactive: -0.04	inactive: -0.018	inactive: 0.079	inactive: -0.02	inactive: 0.113	inactive: -0.03	inactive: 0.205	inactive: 0.005	inactive: -0.056	inactive: 0.106	inactive: 0.002	
LYPLA2 (UniProt O95372)	inactive: 0.062	inactive: 0.003	inactive: -0.134	inactive: -0.036	inactive: -0.106	inactive: -0.04	inactive: -0.056	inactive: -0.067		inactive: 0.197	inactive: 0.043	inactive: -0.131	inactive: 0.082	inactive: -0.056	inactive: -0.071	inactive: 0.038	inactive: -0.001	inactive: -0.055	inactive: -0.099	inactive: 0.132
MAP2K2 (UniProt P36507)	inactive: 0.045	inactive: 0.012	active: -0.496	inactive: 0.105	inactive: -0.065	inactive: -0.02	inactive: 0.056	inactive: 0.003		inactive: -0.001	inactive: -0.018	inactive: 0.013	inactive: 0.009	inactive: 0.028	inactive: -0.001	inactive: -0.002	inactive: 0.17	inactive: 0.014	inactive: 0.011	inactive: -0.008
MAP1LC3B2 (UniProt A6NCE7)	inactive: -0.002	inactive: -0.053	inactive: -0.059	inactive: -0.026	inactive: 0.008	inactive: -0.087	inactive: 0.009	inactive: -0.008		inactive: -0.01	inactive: 0.021	inactive: -0.034	inactive: -0.029	inactive: 0.04	inactive: -0.028	inactive: 0.01	inactive: 0.041	inactive: 0.038	inactive: 0	inactive: 0.088
MAPK8 isoform 3 (UniProt P45983)	inactive: 0.034	inactive: -0.081	active: 0.936	inactive: 0.271	inactive: -0.071	inactive: 0.012	inactive: -0.002	inactive: 0.05		inactive: -0.1	inactive: -0.038	inactive: -0.026	inactive: -0.015	inactive: -0.012	inactive: -0.099	inactive: 0.012	inactive: 0.016	inactive: 0.119	inactive: 0.056	inactive: 0.027
MAPKAPK2 (UniProt P49137)	inactive: 0.039	inactive: -0.009	active: 0.267	inactive: 0.213	inactive: -0.03	inactive: -0.048	inactive: -0.022	inactive: -0.028		inactive: -0.009	inactive: 0.077	inactive: 0.082	inactive: -0.008	inactive: 0.019	inactive: -0.047	inactive: 0.045	inactive: 0.038	inactive: 0.026	inactive: -0.001	inactive: 0.074
MAD2L1 (UniProt Q13257)	inactive: 0	inactive: -0.095	inactive: 0.008	inactive: -0.004	inactive: -0.057	inactive: -0.112	inactive: -0.018	inactive: 0.031		inactive: -0.033	inactive: 0.019	inactive: -0.035	inactive: -0.003	inactive: 0.031	inactive: -0.103	inactive: 0.031	inactive: -0.129	inactive: 0.02	inactive: 0.018	inactive: 0.028
MAPRE3 (UniProt Q9UPY8)	inactive: 0.027	inactive: -0.044	inactive: -0.003	inactive: -0.142	inactive: -0.049	inactive: -0.079	inactive: -0.033	inactive: 0.019		inactive: -0.029	inactive: 0	inactive: -0.002	inactive: -0.021	inactive: 0.074	inactive: -0.07	inactive: 0.06	inactive: 0.136	inactive: -0.037	inactive: 0.027	inactive: 0.041
MAGEC2 (UniProt Q9UBF1)	inactive: -0.003	inactive: -0.02	inactive: 0.108	inactive: 0.093	inactive: 0.058	inactive: -0.059	inactive: 0.05	inactive: -0.003		active: -0.318	inactive: 0.017	inactive: 0.045	inactive: -0.046	inactive: 0.057	inactive: 0	inactive: 0.04	inactive: 0.005	inactive: -0.013	inactive: -0.005	inactive: 0.035
LTV1 (UniProt Q96GA3)	inactive: -0.101	inactive: -0.009	inactive: 0.224	inactive: 0.134	inactive: 0.001	inactive: -0.233	inactive: 0.104	inactive: 0.249		active: -0.726	inactive: 0.044	inactive: -0.04	inactive: -0.04	inactive: -0.035	inactive: 0.248	inactive: -0.008	inactive: -0.011	inactive: -0.025	inactive: -0.075	inactive: -0.075
MAP2K3 isoform 3 (UniProt P46734)	inactive: 0.012	inactive: 0.032	active: -0.457	inactive: 0.02	inactive: 0.059	inactive: -0.035	inactive: -0.022	inactive: -0.012		inactive: -0.032	inactive: -0.071	inactive: -0.074	inactive: -0.051	inactive: -0.08	inactive: 0.103	inactive: -0.008	inactive: 0.021	inactive: 0.002	inactive: 0.042	inactive: -0.031
MAP4K5 (UniProt Q9Y4K4)	inactive: -0.02	inactive: 0.067	active: -0.289	inactive: -0.045	inactive: -0.057	inactive: -0.034	inactive: 0.034	inactive: -0.014		inactive: -0.02	inactive: 0.01	inactive: 0.082	inactive: 0.025	inactive: -0.012	inactive: -0.042	inactive: -0.008	inactive: -0.047	inactive: -0.024	inactive: 0.1	inactive: -0.025
MAPK9 (UniProt P45984)	inactive: -0.002	inactive: -0.016	active: 0.278	inactive: 0.208	inactive: 0.005	inactive: -0.037	inactive: -0.032	inactive: -0.032		inactive: 0	inactive: 0	inactive: -0.011	inactive: -0.078	inactive: 0.044	inactive: -0.057	inactive: -0.07	inactive: 0.034	inactive: 0.038	inactive: -0.022	inactive: -0.005
MAP3K4 isoform 2 (UniProt Q9Y6R4)	inactive: 0.049	inactive: 0	inactive: 0.198	inactive: 0.007	inactive: -0.014	inactive: -0.027	inactive: -0.023	inactive: 0.014		inactive: 0.002	inactive: -0.012	inactive: 0.026	inactive: -0.018	inactive: -0.003	inactive: 0.008	inactive: -0.001	inactive: -0.012	inactive: -0.015	inactive: 0.02	inactive: -0.033
MAP2K4 isoform 2 (UniProt P45985)	inactive: 0.032	inactive: 0.014	inactive: -0.244	inactive: -0.003	inactive: -0.071	inactive: 0.006	inactive: 0.026	inactive: -0.006	inactive: 0.009	inactive: -0.009	inactive: -0.024	inactive: 0.025	inactive: -0.007	inactive: 0.011	inactive: -0.049	inactive: 0.032	inactive: -0.055	inactive: -0.03	inactive: -0.009	inactive: -0.001
LSS (UniProt P48449)	inactive: -0.119	inactive: -0.087	inactive: -0.084	inactive: 0.147	inactive: 0.099	inactive: 0.199	inactive: 0.077	inactive: -0.116		inactive: -0.195	inactive: -0.032	inactive: -0.122	inactive: -0.071	inactive: 0.054	inactive: 0.012	inactive: 0.073	inactive: 0	active: 0.766	inactive: 0.382	inactive: 0.03
MAP3K2 (UniProt Q9Y2U5)	inactive: 0.028	inactive: 0.208	inactive: -0.22	inactive: -0.028	inactive: 0.043	inactive: 0.117	inactive: 0.137	inactive: 0.076		inactive: -0.056	inactive: 0.001	inactive: -0.04	inactive: 0.003	inactive: 0.003	inactive: 0.028	inactive: -0.055	inactive: -0.068	inactive: -0.057	inactive: -0.039	inactive: 0.016

Some of the entries above in another layout:
Target,log2 fold change (IRAK-1-4 Inhibitor I),log2 fold change (ibrutinib),log2 fold change [1],log2 fold change (ralimetinib),log2 fold change [2],log2 fold change [3],log2 fold change [4],log2 fold change (pinometostat),log2 fold change [5],log2 fold change [6],log2 fold change [7],log2 fold change [8],log2 fold change [9],log2 fold change [10],log2 fold change (Nexturastat A),log2 fold change [11],log2 fold change [12],log2 fold change (givinostat),log2 fold change (barasertib),log2 fold change (vemurafenib)
MAP2K3 isoform 3 (UniProt P46734),inactive: 0.012,inactive: 0.032,active: -0.457,inactive: 0.02,inactive: 0.059,inactive: -0.035,inactive: -0.022,inactive: -0.012,,inactive: -0.032,inactive: -0.071,inactive: -0.074,inactive: -0.051,inactive: -0.08,inactive: 0.103,inactive: -0.008,inactive: 0.021,inactive: 0.002,inactive: 0.042,inactive: -0.031
MAP4K5 (UniProt Q9Y4K4),inactive: -0.02,inactive: 0.067,active: -0.289,inactive: -0.045,inactive: -0.057,inactive: -0.034,inactive: 0.034,inactive: -0.014,,inactive: -0.02,inactive: 0.01,inactive: 0.082,inactive: 0.025,inactive: -0.012,inactive: -0.042,inactive: -0.008,inactive: -0.047,inactive: -0.024,inactive: 0.1,inactive: -0.025
